Results deposited as PubChem BioAssay AID1259308 (NCATS, 2017).
Assay: 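Genes whose loss raises luciferase production in HEK293 cells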 (primary screen). Cell system: human HEK293 embryonic kidney cells stably expressing firefly luciferase (HEK-CMV-Luc2-Hygro). Reagents: single siRNA against human genes, 0.8 pmol siRNA per well. Time to read-out: 72 h. Measurement: 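Luciferase light (ONE-Glo) measured on one replicate plate set and viability (CellTiter-Glo) on the other, scaled to a negative control siRNA, with robust z-scores and luciferase per cell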. Scale: total luciferase, z-score: higher = more reporter protein produced. Active means: 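Active when the median/MAD z-score for overall luciferase is greater than 3; a gene was taken forward for validation with new siRNAs if at least two of its three siRNAs passed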. Calls: active = raised luciferase; inactive = no rise.
The whole screen tested about 59,000 reagents; this is an unselected part. Over the whole deposit, about 1,510 (2.6%) are marked active. 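Calls use total luciferase alone and ignore viability, so some active siRNAs may act by altering cell number.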 Unmarked entries are inactive. Reagents against one gene are numbered here. Not all columns of the deposit are shown.

After knock-down of MROH9 #1, the screen gave total luciferase, z-score 0.311.
MROH9 #2 scored total luciferase, z-score -0.223.
Silencing of MROH9 #3 came out at: total luciferase, z-score -0.511.
Knock-down of P2RX3 #1 came out at: total luciferase, z-score -0.708.
P2RX3 #2 scored total luciferase, z-score 0.0639.
Depletion of P2RX3 #3 came out at: total luciferase, z-score 1.02.
For SLC38A9 #1, the values are total luciferase, z-score -0.541.
Silencing of SLC38A9 #2 came out at: total luciferase, z-score 0.326.
Knock-down of SLC38A9 #3 gave: total luciferase, z-score -1.06.
PARP14 #1 gave total luciferase, z-score 0.132.
Against PARP14 #2, the values are total luciferase, z-score -0.735.
After knock-down of PARP14 #3, the screen gave total luciferase, z-score -1.63.
After knock-down of MOGAT1 #1, the screen gave total luciferase, z-score -0.252.
MOGAT1 #2 scored total luciferase, z-score -2.43.
For MOGAT1 #3, the entry reads total luciferase, z-score 0.555.

3 successive entries already listed, quoted:
PARP14 #1 | total luciferase, z-score = 0.132
PARP14 #2 | total luciferase, z-score = -0.735
PARP14 #3 | total luciferase, z-score = -1.63

The list goes on.
With knock-down of UMAD1 #1, the screen gave total luciferase, z-score 0.265.
UMAD1 #2 showed total luciferase, z-score 1.64.
Against UMAD1 #3, the entry reads total luciferase, z-score 2.38.
SLC8B1 #1 scored total luciferase, z-score 0.861.
For SLC8B1 #2, the entry reads total luciferase, z-score 0.0551.
With knock-down of SLC8B1 #3, the record shows total luciferase, z-score -0.677.
After knock-down of ZNF708 #1, the record shows total luciferase, z-score 1.13.
With knock-down of ZNF708 #2, the record shows total luciferase, z-score -0.694.
For ZNF708 #3, the values are total luciferase, z-score -1.04.
UBE2K #1 gave total luciferase, z-score 1.95.
After knock-down of UBE2K #2, the record shows total luciferase, z-score -0.623.
With knock-down of UBE2K #3, the screen gave total luciferase, z-score -0.656.
MGAT1 #1 gave total luciferase, z-score 0.137.
MGAT1 #2 scored total luciferase, z-score -2.
MGAT1 #3 scored total luciferase, z-score -1.87.
After knock-down of COPRS #1, the record shows total luciferase, z-score -0.0613.
Knock-down of COPRS #2 resulted in: total luciferase, z-score 0.308.
With knock-down of COPRS #3, the record shows total luciferase, z-score -1.95.
DCP1A #1 gave total luciferase, z-score 1.12.
Against DCP1A #2, the entry reads total luciferase, z-score 1.89.
For DCP1A #3, the values are total luciferase, z-score 2.84.
Against BROX #1 the deposit lists total luciferase, z-score -1.93.
Against BROX #2, the entry reads total luciferase, z-score -0.759.
After knock-down of BROX #3, the screen gave total luciferase, z-score -0.223.
After knock-down of ZNF829 #1, the screen gave total luciferase, z-score -1.46.
Depletion of ZNF829 #2 came out at: total luciferase, z-score 0.221.
With knock-down of ZNF829 #3, the record shows total luciferase, z-score 1.
